Reference: patent US10543178B2, “Dosage forms and related therapies” (PhilERA New Zealand Limited, priority 2002, dated 2020)

How the values were obtained:
[1] = test system: STZ diabetic rats; assay: Isolated working heart: cardiac function after 7 weeks oral trientine in drinking water; settings: trientine weeks 7-13, mean ± SD
[2] = test system: humans with T2DM; assay: 6-month randomized double-blind placebo-controlled trial of oral trientine, LV mass by cardiac MRI; settings: 6 months - baseline, mean; trientine 600 mg twice-daily

Q: What does the source list for `NCCNCCNCCN` [trientine, N,N′-Bis(2-aminoethyl)-1,2-ethanediamine]?
A: Final weight ([1]; STZ/D7: diabetic rats, n = 8): 290 ± 56 g; Final weight ([1]; Sham/D7: non-diabetic rats, n = 11): 563 ± 17 g; Δ diastolic blood pressure [2]: −3.9 mmHg; Δ systolic blood pressure [2]: −3.5 mmHg
